Measurements reported in PMC8468037.
These are yes or no findings as the source states them, for the method shown. Each block holds one substance with its values, some of them ahead of it.

Chains of the proteins cited; added tags and fusions are not shown. Lines headed by an entry give the natural chain unless they say otherwise; changes in a name come on top. A line that says so, or that is headed by a name, gives the form on record, which may keep a tag or linker. Residues count along the entry.
Human angiogenin, wild type (P03950, residues 25-147): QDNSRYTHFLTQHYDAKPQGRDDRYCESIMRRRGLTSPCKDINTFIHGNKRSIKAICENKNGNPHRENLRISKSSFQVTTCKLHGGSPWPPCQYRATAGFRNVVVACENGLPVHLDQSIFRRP
H13A-ANG (human angiogenin variant H13A) (P03950, form named): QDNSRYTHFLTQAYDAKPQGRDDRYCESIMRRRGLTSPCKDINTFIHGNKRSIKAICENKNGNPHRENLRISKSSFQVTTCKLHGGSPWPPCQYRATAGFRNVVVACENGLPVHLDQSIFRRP
R121C-ANG (human angiogenin variant R121C) (P03950, form named): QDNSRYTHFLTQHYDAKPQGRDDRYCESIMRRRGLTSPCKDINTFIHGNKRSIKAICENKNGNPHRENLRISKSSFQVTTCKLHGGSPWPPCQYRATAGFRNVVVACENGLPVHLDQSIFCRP

Key:
[1] = molecular target: H13A-ANG (human angiogenin variant H13A) (human) (UniProt P03950); assay: SEC; powder lyophilized from ddH2O dissolved directly in 0.40 M NaPi, pH 6.7, without HAc lyophilization; Superdex 75 Increase 10/300 in 0.40 M NaPi, pH 6.7; both purified
[2] = molecular target: H13A-ANG (human angiogenin variant H13A) (human) (UniProt P03950); assay: SEC; protein lyophilized from 40% HAc (about 25 mg/mL), powder solubilized in 0.40 M NaPi, pH 6.7; Superdex 75 Increase 10/300 in 0.40 M NaPi, pH 6.7; dimer extent = peak area vs. total area eluted; both purified
[3] = molecular target: H13A-ANG (human angiogenin variant H13A) (human) (UniProt P03950); assay: SEC; protein lyophilized from 40% HAc, powder solubilized in ddH2O without NaPi; Superdex 75 Increase 10/300 in 0.40 M NaPi, pH 6.7; both purified
[4] = molecular target: Human angiogenin, wild type (human) (UniProt P03950); assay: condition: only HAc-lyophilized powder dissolved in ddH2O lacking NaPi buffer; SEC; protein lyophilized from 40% HAc, powder solubilized in ddH2O without NaPi; Superdex 75 Increase 10/300 in 0.40 M NaPi, pH 6.7; both purified
[5] = molecular target: Human angiogenin, wild type (human) (UniProt P03950); assay: condition: only without previous HAc lyophilization; SEC; powder lyophilized from ddH2O dissolved directly in 0.40 M NaPi, pH 6.7, without HAc lyophilization; Superdex 75 Increase 10/300 in 0.40 M NaPi, pH 6.7; both purified
[6] = molecular target: R121C-ANG (human angiogenin variant R121C) (human) (UniProt P03950); assay: condition: only HAc-lyophilized powder dissolved in ddH2O lacking NaPi buffer; SEC; protein lyophilized from 40% HAc, powder solubilized in ddH2O without NaPi; Superdex 75 Increase 10/300 in 0.40 M NaPi, pH 6.7; both purified
[7] = molecular target: R121C-ANG (human angiogenin variant R121C) (human) (UniProt P03950); assay: condition: only without previous HAc lyophilization; SEC; powder lyophilized from ddH2O dissolved directly in 0.40 M NaPi, pH 6.7, without HAc lyophilization; Superdex 75 Increase 10/300 in 0.40 M NaPi, pH 6.7; both purified

binding [1]: no binding
binding [2]: no binding
binding [3]: no binding
Substance: H13A-ANG (human angiogenin variant H13A) (from UniProt P03950 25-147) (enzyme)

binding [4]: no binding
binding [5]: no binding
Substance: Human angiogenin, wild type (from UniProt P03950 25-147) (enzyme)

binding [6]: no binding
binding [7]: no binding
Substance: R121C-ANG (human angiogenin variant R121C) (from UniProt P03950 25-147) (enzyme)
